Laboratory results as given in US10973794B2, “Dental composition and use” (CALSCIENCE INTERNATIONAL LTD., priority 2015, dated 2021).

Key:
Format in all cases: cell-based, human
hPOT1 = experiment: Taqman Real Time-PCR expression of hPOT1 in HFFs with and without H2O2 stress-induced premature senescence; conditions: 1/1000 dilution; for dct, Expression of hPOT1: HPRT control
Protocol: (§1) The following results relate to the analysis of senescence tests on 1,5-Dicaffeoylquinic Acid (1,5-DCQA). FIG. 8 relates to 1,4-DCQA. The experiments were conducted using human foreskin fibroblasts (HFFs).
(§2) In the following experiments, HFFs were challenged for a period of two hours with 150 μM hydrogen peroxide (H2O2), to stimulate premature senescence in the presence and absence of 1,5-DCQA (1/1000 dilution), and subsequently assayed by Taqman Real Time-PCR for the expression of key senescence associated genes.
These findings are supported by an analysis of the Protection of Telomeres gene (POT 1).
(§3) The results shown in Table 2 and FIGS. 2 to 7 were generated using the polymerase chain reaction (PCR), wherein the dCt and ddCT values are results used in statistical analysis. The abbreviation dCt relates to “delta cycle threshold” and the abbreviation ddCt relates to “delta delta cycle threshold”. In these experiments, HPRT (hypoxanthine phosphoribosyltransferase, a protein from the HPRT-1 gene) was used as a control.

Sirtuin 2 (SIRT2) = experiment: Taqman Real Time-PCR expression of Sirtuin 2 in HFFs with and without H2O2 stress-induced premature senescence; conditions: 1/1000 dilution; for dCt, Expression of SIRT2: HPRT control
Protocol: as §1, §2
(§4) These genes are involved in cell cycle regulation and mitochondrial stress responses. Challenge with a near lethal level of oxidant stress typically induces an increase in SIRT2 and decrease in SIRT3 expression. […] This is indicative of each having a potential for stimulating cell proliferation in the absence of oxidant challenge.
as §3

Sirtuin 3 (SIRT3) = experiment: Taqman Real Time-PCR expression of Sirtuin 3 in HFFs with and without H2O2 stress-induced premature senescence; conditions: 1/1000 dilution; for dCt, Expression of SIRT3: HPRT control
Protocol: as §1, §2, §4, §3

p16 = experiment: Taqman Real Time-PCR expression of p16 in HFFs with and without H2O2 stress-induced premature senescence; conditions: 1/1000 dilution; for dCt, Expression of P16: HPRT control
Protocol: as §1, §2, §3

p21 = experiment: Taqman Real Time-PCR expression of p21 in HFFs with and without H2O2 stress-induced premature senescence; conditions: 1/1000 dilution; for dCt, Expression of P21: HPRT control
Protocol: as §1, §2, §3

XRCC5 = experiment: Taqman Real Time-PCR expression of XRCC5 in HFFs with and without H2O2 stress-induced premature senescence; conditions: 1/1000 dilution; for dCt, Expression of XRCC5: HPRT control
Protocol: as §1, §2
XRCC5 is a double strand break repair protein.
as §3

[1] = & stress (150 μM H2O2, two hours)

## O=C(/C=C/c1ccc(O)c(O)c1)O[C@@H]1C[C@](OC(=O)/C=C/c2ccc(O)c(O)c2)(C(=O)O)C[C@@H](O)[C@H]1O [1,5-DCQA, 1,5-Dicaffeoylquinic Acid]
hPOT1; [1]
  HPOT1 (cycle threshold): 29.5758
  dct, Expression of hPOT1: 2.240
hPOT1; no stress
  HPOT1 (cycle threshold): 29.47
  dct, Expression of hPOT1: 3.141
Sirtuin 2 (SIRT2); [1]
  SIRT2 (cycle threshold): 27.72
  ddCt (−0.016), Expression of SIRT2: 0.371
  dCt, Expression of SIRT2: 0.387
Sirtuin 2 (SIRT2); no stress
  SIRT2 (cycle threshold): 27.16
  ddCt (−0.016), Expression of SIRT2: 0.817
  dCt, Expression of SIRT2: 0.833
Sirtuin 3 (SIRT3); [1]
  SIRT3 (cycle threshold): 29.3
  ddCt (−2.079), Expression of SIRT3: −0.120
  dCt, Expression of SIRT3: 1.959
Sirtuin 3 (SIRT3); no stress
  SIRT3 (cycle threshold): 28.56
  ddCt (−2.079), Expression of SIRT3: 0.148
  dCt, Expression of SIRT3: 2.227
p16; [1]
  P16 (cycle threshold): 28.09
  ddCt (1.275), Expression of P16: −0.519
  dCt, Expression of P16: 0.756
p16; no stress
  P16 (cycle threshold): 27.66
  ddCt (1.275), Expression of P16: 0.050
  dCt, Expression of P16: 1.325
p21; [1]
  P21 (cycle threshold): 21.31
  ddCt (−3.761), Expression of P21: −2.263
  dCt, Expression of P21: −6.024
p21; no stress
  P21 (cycle threshold): 22.4
  ddCt (−3.761), Expression of P21: −0.167
  dCt, Expression of P21: −3.928
XRCC5; [1]
  XRCC5 (cycle threshold): 25.9
  ddCt (−−1.292), Expression of XRCC5: −0.141
  dCt, Expression of XRCC5: −1.433
XRCC5; no stress
  XRCC5 (cycle threshold): 25.48
  ddCt (−−1.292), Expression of XRCC5: 0.444
  dCt, Expression of XRCC5: −0.848
